Results reported in US4665095A, “Use of 2-[(3,5-dihalo-4-aminobenzyl)]imidazolines to stimulate alpha-1 adrenergic receptors and to treat nasal congestion” (Abbott Laboratories, priority 1985, dated 1987).
Counter-ions that a name gives are not always drawn. At least one structure is not confirmed: it was looked up by name or label, or the drawing left a doubt.

Experiments:
[1] = tested on: nasal resistance in anesthetized dogs; assay: Effect on airway (nasal) resistance in anesthetized dogs following intranasal spray administration; format: in vivo, beagle dog; conditions: administered in aerosol
Experimental: a. Method Beagle dogs of either sex, weighing 9-12 kg were anesthetized with nembutal (30 mg/kg, intravenously) with supplemental doses administered throughout the experiment as required. The dogs were intubated with a cuffed endotracheal tube and were ventilated with room air by means of a Harvard respiration pump. Arterial blood pressure was recorded from a femoral artery using a Statham P23Gb pressure transducer. A tachygraphic recording of heart rate was obtained from the blood pressure signal.
A constant flow of air (2 liters/minute); provided by an anesthetic machine (CAECO) was administered into a nasal cavity through a 6 cm long plastic tube tapered to a diameter of 6 mm to fit into the right nostril. The air perfused the nasal cavity and exited through the mouth. The resistance to the air flow exerted by the large surface area of the nasal mucosa was measured as a nasal pressure in cm of water, using Model MP 45 Validyne transducer. […] Since the amount of drug administered in this way is extremely small and not directly measurable, the doses were calculated from the concentration of drug in the humidifier and volume of fluid used in each administration (in mg per dog). The nasal resistance, heart rate and blood pressure were monitored prior to and then 2 hours following the drug administration. […]

[2] = tested on: alpha-2 adrenergic receptor (dog saphenous vein); assay: Alpha-2 Receptor Interaction in Phenoxybenzamine (PBZ)-Treated Dog Saphenous Veins; parameters: species or system beagle dog
[3] = tested on: alpha-1 adrenergic receptor (rabbit thoracic aorta); assay: Alpha-1-Receptor Interaction in Rabbit Aorta
[4] = tested on: presynaptic (alpha-2) receptor of rabbit pulmonary artery; assay: Presynaptic alpha-2 receptor interaction in superfused rabbit pulmonary artery (stimulated tritium overflow)
[5] = tested on: postsynaptic (alpha-1) receptor of rabbit pulmonary artery; assay: Postsynaptic alpha-1 receptor interaction in superfused rabbit pulmonary artery (isometric contraction); conditions: at concentrations as low as

For `Nc1c(Cl)cc(CC2=NCCN2)cc1Cl` [Example 4, 2-[(3,5-Dichloro-4-aminobenzyl)]imidazoline hydrochloride], the “resistance to air flow through the nasal cavity” value [1] was “strong and dose dependent decrease of the resistance to air flow”, the “alpha-2 antagonism of norepinephrine contraction” value [2] was “competitive alpha-2 antagonism” and the “pA2 (competitive alpha-2 antagonism of norepinephrine contraction)” value ([2]; 30 min) was 6.51±0.23. For the same compound, the “Slope (competitive alpha-2 antagonism)” value ([2]; slope of pA2) was 0.93±0.19, the alpha-2 agonistic activity ([2]; up to 10^-3 M (n=2)) was “devoid of any alpha-2 agonistic activity” and the alpha-1 agonist activity [3] was “full (alpha-1) agonist”. The “potency relative to norepinephrine (alpha-1 agonism)” value ([3]; fold more potent than norepinephrine) was 1.31 ±0.22 fold, the “effect on stimulated tritium overflow (alpha-2 antagonistic activity)” value ([4]; at concentrations 10^-6 M) was “potentiated the stimulated tritium overflow” and the “inhibitory effect on the stimulated overflow (presynaptic alpha-2 agonistic activity)” value ([4]; at concentrations up to 10^-5 M) was “devoid of any inhibitory effect on the stimulated overflow”. For the same compound, the “concentration giving distinct stimulation of the postsynaptic (alpha-1) receptor” value [5] was ≤ 10^-7 M.
